These are yes or no findings as the source states them, for the method shown. In cells and extracts the contact can be indirect. Some entries that bind do so weakly or less than the wild type.

Sequences of proteins named here, by UniProt entry; tags and fusion partners are left off.
UniProt Q9H4A3: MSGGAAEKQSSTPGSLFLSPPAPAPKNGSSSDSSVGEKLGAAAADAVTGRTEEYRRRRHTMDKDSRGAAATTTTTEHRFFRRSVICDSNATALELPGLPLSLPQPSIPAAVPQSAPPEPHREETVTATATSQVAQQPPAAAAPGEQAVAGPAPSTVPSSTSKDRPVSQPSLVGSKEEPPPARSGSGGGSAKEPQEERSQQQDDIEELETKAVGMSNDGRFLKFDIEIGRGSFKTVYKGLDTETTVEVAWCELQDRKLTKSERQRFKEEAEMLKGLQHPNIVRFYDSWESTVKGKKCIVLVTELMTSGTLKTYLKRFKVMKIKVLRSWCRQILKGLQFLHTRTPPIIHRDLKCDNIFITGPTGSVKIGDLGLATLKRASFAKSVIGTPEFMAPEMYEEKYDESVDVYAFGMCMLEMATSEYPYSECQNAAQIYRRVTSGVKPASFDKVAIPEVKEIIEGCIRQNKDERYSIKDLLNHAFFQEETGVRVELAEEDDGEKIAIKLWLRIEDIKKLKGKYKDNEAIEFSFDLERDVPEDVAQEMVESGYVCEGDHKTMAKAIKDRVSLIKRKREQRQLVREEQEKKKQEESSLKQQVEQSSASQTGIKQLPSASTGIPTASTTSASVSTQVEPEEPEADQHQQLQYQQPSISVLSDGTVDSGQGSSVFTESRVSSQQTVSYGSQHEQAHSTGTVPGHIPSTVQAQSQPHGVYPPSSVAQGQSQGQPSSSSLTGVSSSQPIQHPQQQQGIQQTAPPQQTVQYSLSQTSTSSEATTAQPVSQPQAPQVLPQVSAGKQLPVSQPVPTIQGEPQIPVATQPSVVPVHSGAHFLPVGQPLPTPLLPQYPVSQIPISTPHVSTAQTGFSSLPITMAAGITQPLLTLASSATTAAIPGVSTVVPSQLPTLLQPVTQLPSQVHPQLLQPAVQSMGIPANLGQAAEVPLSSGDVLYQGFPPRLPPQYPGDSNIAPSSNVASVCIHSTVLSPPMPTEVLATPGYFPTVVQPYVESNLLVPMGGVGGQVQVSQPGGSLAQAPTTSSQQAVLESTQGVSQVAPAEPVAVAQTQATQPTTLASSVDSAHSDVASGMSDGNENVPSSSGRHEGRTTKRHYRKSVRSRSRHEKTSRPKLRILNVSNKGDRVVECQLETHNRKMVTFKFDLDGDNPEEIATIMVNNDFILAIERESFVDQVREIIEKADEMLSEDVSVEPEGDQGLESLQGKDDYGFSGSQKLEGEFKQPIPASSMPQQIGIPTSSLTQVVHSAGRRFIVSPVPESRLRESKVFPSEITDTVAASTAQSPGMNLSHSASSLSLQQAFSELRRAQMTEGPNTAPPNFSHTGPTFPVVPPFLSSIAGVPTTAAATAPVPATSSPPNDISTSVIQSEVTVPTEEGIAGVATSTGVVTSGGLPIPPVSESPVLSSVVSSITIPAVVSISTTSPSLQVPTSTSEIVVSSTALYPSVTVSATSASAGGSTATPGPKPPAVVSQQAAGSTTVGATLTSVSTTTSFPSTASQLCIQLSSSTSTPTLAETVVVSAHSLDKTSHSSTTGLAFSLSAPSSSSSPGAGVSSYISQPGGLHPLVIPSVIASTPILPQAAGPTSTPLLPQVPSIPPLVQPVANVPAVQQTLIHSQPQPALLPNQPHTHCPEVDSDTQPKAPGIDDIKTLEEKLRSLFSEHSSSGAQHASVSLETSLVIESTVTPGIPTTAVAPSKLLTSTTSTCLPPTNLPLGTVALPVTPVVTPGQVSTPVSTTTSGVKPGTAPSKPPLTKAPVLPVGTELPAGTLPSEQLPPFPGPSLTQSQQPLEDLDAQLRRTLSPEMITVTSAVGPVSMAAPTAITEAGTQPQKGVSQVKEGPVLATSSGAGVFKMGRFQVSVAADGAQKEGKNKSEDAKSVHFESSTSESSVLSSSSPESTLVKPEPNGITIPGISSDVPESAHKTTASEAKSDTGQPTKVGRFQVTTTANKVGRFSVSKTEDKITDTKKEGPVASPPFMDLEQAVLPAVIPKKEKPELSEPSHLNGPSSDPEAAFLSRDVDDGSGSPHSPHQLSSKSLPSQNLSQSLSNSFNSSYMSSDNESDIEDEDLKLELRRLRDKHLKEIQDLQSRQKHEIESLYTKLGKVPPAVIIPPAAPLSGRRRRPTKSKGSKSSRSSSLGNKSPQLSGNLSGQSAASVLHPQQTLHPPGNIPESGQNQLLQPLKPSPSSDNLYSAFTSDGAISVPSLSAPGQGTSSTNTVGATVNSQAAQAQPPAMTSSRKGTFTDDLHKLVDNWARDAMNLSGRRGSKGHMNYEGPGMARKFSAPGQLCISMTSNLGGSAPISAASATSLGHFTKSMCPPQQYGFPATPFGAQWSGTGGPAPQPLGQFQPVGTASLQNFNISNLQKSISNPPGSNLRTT
UniProt Q9HAU4: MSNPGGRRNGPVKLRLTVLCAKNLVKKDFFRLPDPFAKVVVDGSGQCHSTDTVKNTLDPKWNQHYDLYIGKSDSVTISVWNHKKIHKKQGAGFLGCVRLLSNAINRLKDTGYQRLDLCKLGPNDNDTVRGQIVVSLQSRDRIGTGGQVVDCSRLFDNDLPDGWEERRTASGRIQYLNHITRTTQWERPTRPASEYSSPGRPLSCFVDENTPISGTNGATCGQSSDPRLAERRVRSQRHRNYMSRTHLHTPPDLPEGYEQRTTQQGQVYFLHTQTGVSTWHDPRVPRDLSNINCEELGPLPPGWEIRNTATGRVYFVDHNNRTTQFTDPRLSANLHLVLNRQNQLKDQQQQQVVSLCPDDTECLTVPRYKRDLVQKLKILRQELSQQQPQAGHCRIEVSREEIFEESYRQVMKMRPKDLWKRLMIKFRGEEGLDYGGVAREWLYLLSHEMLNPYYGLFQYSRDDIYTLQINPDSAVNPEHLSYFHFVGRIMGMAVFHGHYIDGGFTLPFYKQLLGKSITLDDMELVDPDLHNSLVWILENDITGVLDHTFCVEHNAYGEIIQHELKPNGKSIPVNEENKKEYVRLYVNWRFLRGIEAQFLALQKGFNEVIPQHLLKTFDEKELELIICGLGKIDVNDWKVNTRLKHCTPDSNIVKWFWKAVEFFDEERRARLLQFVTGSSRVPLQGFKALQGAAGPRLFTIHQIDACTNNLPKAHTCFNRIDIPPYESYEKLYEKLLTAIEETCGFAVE
UniProt O95747: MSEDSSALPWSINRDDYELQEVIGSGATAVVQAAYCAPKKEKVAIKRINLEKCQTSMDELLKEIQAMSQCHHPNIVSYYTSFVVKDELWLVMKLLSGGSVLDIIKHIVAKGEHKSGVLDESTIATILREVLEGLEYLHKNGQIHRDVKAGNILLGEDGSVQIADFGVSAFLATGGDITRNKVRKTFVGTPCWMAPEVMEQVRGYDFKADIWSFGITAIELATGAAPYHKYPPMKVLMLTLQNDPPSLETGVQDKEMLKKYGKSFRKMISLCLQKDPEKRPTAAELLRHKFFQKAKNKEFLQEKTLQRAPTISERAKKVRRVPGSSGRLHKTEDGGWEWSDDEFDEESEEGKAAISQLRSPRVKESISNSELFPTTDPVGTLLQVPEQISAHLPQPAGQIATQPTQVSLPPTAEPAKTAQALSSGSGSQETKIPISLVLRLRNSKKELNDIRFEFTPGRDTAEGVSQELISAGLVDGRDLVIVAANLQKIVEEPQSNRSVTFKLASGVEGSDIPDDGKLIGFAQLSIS

Assay [1] deals with T1, occludin (human (endogenous in HUVECs or HDMECs)) (UniProt Q16625).
T1 sequence: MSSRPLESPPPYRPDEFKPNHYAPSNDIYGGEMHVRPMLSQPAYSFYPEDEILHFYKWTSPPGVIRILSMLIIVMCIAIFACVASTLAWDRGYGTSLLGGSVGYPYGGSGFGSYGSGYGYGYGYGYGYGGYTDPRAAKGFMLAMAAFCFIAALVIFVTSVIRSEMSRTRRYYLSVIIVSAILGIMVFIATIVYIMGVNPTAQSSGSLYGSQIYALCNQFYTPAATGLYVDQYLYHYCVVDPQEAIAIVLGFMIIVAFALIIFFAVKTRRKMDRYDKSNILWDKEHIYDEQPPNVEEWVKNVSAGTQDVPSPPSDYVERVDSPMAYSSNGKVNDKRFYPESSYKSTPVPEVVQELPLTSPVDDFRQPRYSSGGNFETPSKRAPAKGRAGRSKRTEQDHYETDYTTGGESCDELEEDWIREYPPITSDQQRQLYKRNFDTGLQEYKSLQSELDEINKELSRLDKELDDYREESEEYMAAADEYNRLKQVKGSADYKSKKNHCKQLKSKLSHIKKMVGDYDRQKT
In words: co-IP; endogenous proteins in endothelial cell lysates; primary antibody overnight at 4 °C, Protein A/G PLUS-Agarose 1 h; IP buffer 50 mM HEPES, 0.1 M NaCl, 0.5 mM EDTA, 1% CHAPS; Western blot; for the occludin co-IP cells treated with WNK463 (1 μM). A general note: Immunoblotting shows a protein as a band on a membrane.

Assay [2] has as its target protein kinase With No lysine (K) 1 (WNK1) (human (endogenous in HUVECs)) (UniProt Q9H4A3). The assay is described as above.
Assay [3] addresses SMAD Ubiquitination Regulatory Factor 2 (SMURF2) (human (endogenous in HUVECs)) (UniProt Q9HAU4). The description is as above.
Assay [4] deals with Oxidative Stress Responsive 1 (OSR1) (human (endogenous in HUVECs)) (UniProt O95747). Description: co-IP; as a1, with the synthetic CCT blocking peptide … (100 µM) co-incubated with the lysate during the immunoprecipitation; only the binder purified.

Take “SMAD Ubiquitination Regulatory Factor 2 (SMURF2) (from UniProt Q9HAU4 1-748)”: the binding result in assay [1] and in assay [2] was “binds” each time.

“Oxidative Stress Responsive 1 (OSR1) (from UniProt O95747 1-527)”: the binding entry in assay [3] was “binds weakly”; in assay [1] it was “binds”. As to SAGRRFIVSPVPE [CCT blocking peptide …], the binding entry in assay [4] is “binds”.

The values above are taken from PMC12392294.
